These are yes or no findings as the source states them, for the method shown. In cells and extracts the contact can be indirect. These calls come from enrichment with a bait or labelling near it, and not all partners need be listed. No binding means not detected with the bait. Tags and fused reporters may be left off the sequences shown.
B1: p120^Cat (protein, UniProt O60716 1-968)
chain: MDDSEVESTASILASVKEQEAQFEKLTRALEEERRHVSAQLERVRVSPQDANPLMANGTLTRRHQNGRFVGDADLERQKFSDLKLNGPQDHSHLLYSTIPRMQEPGQIVETYTEEDPEGAMSVVSVETSDDGTTRRTETTVKKVVKTVTTRTVQPVAMGPDGLPVDASSVSNNYIQTLGRDFRKNGNGGPGPYVGQAGTATLPRNFHYPPDGYSRHYEDGYPGGSDNYGSLSRVTRIEERYRPSMEGYRAPSRQDVYGPQPQVRVGGSSVDLHRFHPEPYGLEDDQRSMGYDDLDYGMMSDYGTARRTGTPSDPRRRLRSYEDMIGEEVPSDQYYWAPLAQHERGSLASLDSLRKGGPPPPNWRQPELPEVIAMLGFRLDAVKSNAAAYLQHLCYRNDKVKTDVRKLKGIPVLVGLLDHPKKEVHLGACGALKNISFGRDQDNKIAIKNCDGVPALVRLLRKARDMDLTEVITGTLWNLSSHDSIKMEIVDHALHALTDEVIIPHSGWEREPNEDCKPRHIEWESVLTNTAGCLRNVSSERSEARRKLRECDGLVDALIFIVQAEIGQKDSDSKLVENCVCLLRNLSYQVHREIPQAERYQEAAPNVANNTGPHAASCFGAKKGKDEWFSRGKKPIEDPANDTVDFPKRTSPARGYELLFQPEVVRIYISLLKESKTPAILEASAGAIQNLCAGRWTYGRYIRSALRQEKALSAIADLLTNEHERVVKAASGALRNLAVDARNKELIGKHAIPNLVKNLPGGQQNSSWNFSEDTVISILNTINEVIAENLEAAKKLRETQGIEKLVLINKSGNRSEKEVRAAALVLQTIWGYKELRKPLEKEGWKKSDFQVNLNNASRSQSSHSYDDSTLPLIDRNQKSDKKPDREEIQMSNMGSNTKSLDNNYSTPNERGDHNRTLDRSGDLGDMEPLKGTTPLMQDEGQESLEEELDVLVLDDEGGQVSYPSMQKI
B2: PKP3 (protein, UniProt Q9Y446 1-797)
chain: MQDGNFLLSALQPEAGVCSLALPSDLQLDRRGAEGPEAERLRAARVQEQVRARLLQLGQQPRHNGAAEPEPEAETARGTSRGQYHTLQAGFSSRSQGLSGDKTSGFRPIAKPAYSPASWSSRSAVDLSCSRRLSSAHNGGSAFGAAGYGGAQPTPPMPTRPVSFHERGGVGSRADYDTLSLRSLRLGPGGLDDRYSLVSEQLEPAATSTYRAFAYERQASSSSSRAGGLDWPEATEVSPSRTIRAPAVRTLQRFQSSHRSRGVGGAVPGAVLEPVARAPSVRSLSLSLADSGHLPDVHGFNSYGSHRTLQRLSSGFDDIDLPSAVKYLMASDPNLQVLGAAYIQHKCYSDAAAKKQARSLQAVPRLVKLFNHANQEVQRHATGAMRNLIYDNADNKLALVEENGIFELLRTLREQDDELRKNVTGILWNLSSSDHLKDRLARDTLEQLTDLVLSPLSGAGGPPLIQQNASEAEIFYNATGFLRNLSSASQATRQKMRECHGLVDALVTSINHALDAGKCEDKSVENAVCVLRNLSYRLYDEMPPSALQRLEGRGRRDLAGAPPGEVVGCFTPQSRRLRELPLAADALTFAEVSKDPKGLEWLWSPQIVGLYNRLLQRCELNRHTTEAAAGALQNITAGDRRWAGVLSRLALEQERILNPLLDRVRTADHHQLRSLTGLIRNLSRNARNKDEMSTKVVSHLIEKLPGSVGEKSPPAEVLVNIIAVLNNLVVASPIAARDLLYFDGLRKLIFIKKKRDSPDSEKSSRAASSLLANLWQYNKLHRDFRAKGYRKEDFLGP
B3: ABLIM3 (protein, UniProt O94929 1-683)
chain: MNTSIPYQQNPYNPRGSSNVIQCYRCGDTCKGEVVRVHNNHFHIRCFTCQVCGCGLAQSGFFFKNQEYICTQDYQQLYGTRCDSCRDFITGEVISALGRTYHPKCFVCSLCRKPFPIGDKVTFSGKECVCQTCSQSMASSKPIKIRGPSHCAGCKEEIKHGQSLLALDKQWHVSCFKCQTCSVILTGEYISKDGVPYCESDYHAQFGIKCETCDRYISGRVLEAGGKHYHPTCARCVRCHQMFTEGEEMYLTGSEVWHPICKQAARAEKKLKHRRTSETSISPPGSSIGSPNRVICAKVDNEILNYKDLAALPKVKSIYEVQRPDLISYEPHSRYMSDEMLERCGYGESLGTLSPYSQDIYENLDLRQRRASSPGYIDSPTYSRQGMSPTFSRSPHHYYRSGPESGRSSPYHSQLDVRSSTPTSYQAPKHFHIPAGDSNIYRKPPIYKRHGDLSTATKSKTSEDISQTSKYSPIYSPDPYYASESEYWTYHGSPKVPRARRFSSGGEEDDFDRSMHKLQSGIGRLILKEEMKARSSSYADPWTPPRSSTSSREALHTAGYEMSLNGSPRSHYLADSDPLISKSASLPAYRRNGLHRTPSADLFHYDSMNAVNWGMREYKIYPYELLLVTTRGRNRLPKDVDRTRLERHLSQEEFYQVFGMTISEFDRLALWKRNELKKQARLF
B4: PTPN14 (protein, UniProt Q15678 1-1187)
chain: MPFGLKLRRTRRYNVLSKNCFVTRIRLLDSNVIECTLSVESTGQECLEAVAQRLELRETHYFGLWFLSKSQQARWVELEKPLKKHLDKFANEPLLFFGVMFYVPNVSWLQQEATRYQYYLQVKKDVLEGRLRCTLDQVIRLAGLAVQADFGDYNQFDSQDFLREYVLFPMDLALEEAVLEELTQKVAQEHKAHSGILPAEAELMYINEVERLDGFGQEIFPVKDNHGNCVHLGIFFMGIFVRNRIGRQAVIYRWNDMGNITHNKSTILVELINKEETALFHTDDIENAKYISRLFATRHKFYKQNKICTEQSNSPPPIRRQPTWSRSSLPRQQPYILPPVHVQCGEHYSETHTSQDSIFHGNEEALYCNSHNSLDLNYLNGTVTNGSVCSVHSVNSLNCSQSFIQASPVSSNLSIPGSDIMRADYIPSHRHSAIIVPSYRPTPDYETVMRQMKRGILHTDSQSQSLRNLNIINTHAYNQPEDLVYSQPEMRERHPYTVPYGPQGVYSNKLVSPSDQRNPKNNVVPSKPGASAISHTVSTPELANMQLQGSHNYSTAHMLKNYLFRPPPPYPRPRPATSTPDLASHRHKYVSGSSPDLVTRKVQLSVKTFQEDSSPVVHQSLQEVSEPLTATKHHGTVNKRHSLEVMNSMVRGMEAMTLKSLHLPMARRNTLREQGPPEEGSGSHEVPQLPQYHHKKTFSDATMLIHSSESEEEEEEAPESVPQIPMLREKMEYSAQLQAALARIPNKPPPEYPGPRKSVSNGALRQDQASLPPAMARARVLRHGPAKAISMSRTDPPAVNGASLGPSISEPDLTSVKERVKKEPVKERPVSEMFSLEDSIIEREMMIRNLEKQKMAGLEAQKRPLMLAALNGLSVARVSGREENRVDATRVPMDERFRTLKKKLEEGMVFTEYEQIPKKKANGIFSTAALPENAERSRIREVVPYEENRVELIPTKENNTGYINASHIKVVVGGAEWHYIATQGPLPHTCHDFWQMVWEQGVNVIAMVTAEEEGGRTKSHRYWPKLGSKHSSATYGKFKVTTKFRTDSVCYATTGLKVKHLLSGQERTVWHLQYTDWPDHGCPEDVQGFLSYLEEIQSVRRHTNSMLEGTKNRHPPIVVHCSAGVGRTGVLILSELMIYCLEHNEKVEVPMMLRLLREQRMFMIQTIAQYKFVYQVLIQFLQNSRLI

The chains behind the UniProt entries cited, without tags or fusion partners.
UniProt Q8N4C8: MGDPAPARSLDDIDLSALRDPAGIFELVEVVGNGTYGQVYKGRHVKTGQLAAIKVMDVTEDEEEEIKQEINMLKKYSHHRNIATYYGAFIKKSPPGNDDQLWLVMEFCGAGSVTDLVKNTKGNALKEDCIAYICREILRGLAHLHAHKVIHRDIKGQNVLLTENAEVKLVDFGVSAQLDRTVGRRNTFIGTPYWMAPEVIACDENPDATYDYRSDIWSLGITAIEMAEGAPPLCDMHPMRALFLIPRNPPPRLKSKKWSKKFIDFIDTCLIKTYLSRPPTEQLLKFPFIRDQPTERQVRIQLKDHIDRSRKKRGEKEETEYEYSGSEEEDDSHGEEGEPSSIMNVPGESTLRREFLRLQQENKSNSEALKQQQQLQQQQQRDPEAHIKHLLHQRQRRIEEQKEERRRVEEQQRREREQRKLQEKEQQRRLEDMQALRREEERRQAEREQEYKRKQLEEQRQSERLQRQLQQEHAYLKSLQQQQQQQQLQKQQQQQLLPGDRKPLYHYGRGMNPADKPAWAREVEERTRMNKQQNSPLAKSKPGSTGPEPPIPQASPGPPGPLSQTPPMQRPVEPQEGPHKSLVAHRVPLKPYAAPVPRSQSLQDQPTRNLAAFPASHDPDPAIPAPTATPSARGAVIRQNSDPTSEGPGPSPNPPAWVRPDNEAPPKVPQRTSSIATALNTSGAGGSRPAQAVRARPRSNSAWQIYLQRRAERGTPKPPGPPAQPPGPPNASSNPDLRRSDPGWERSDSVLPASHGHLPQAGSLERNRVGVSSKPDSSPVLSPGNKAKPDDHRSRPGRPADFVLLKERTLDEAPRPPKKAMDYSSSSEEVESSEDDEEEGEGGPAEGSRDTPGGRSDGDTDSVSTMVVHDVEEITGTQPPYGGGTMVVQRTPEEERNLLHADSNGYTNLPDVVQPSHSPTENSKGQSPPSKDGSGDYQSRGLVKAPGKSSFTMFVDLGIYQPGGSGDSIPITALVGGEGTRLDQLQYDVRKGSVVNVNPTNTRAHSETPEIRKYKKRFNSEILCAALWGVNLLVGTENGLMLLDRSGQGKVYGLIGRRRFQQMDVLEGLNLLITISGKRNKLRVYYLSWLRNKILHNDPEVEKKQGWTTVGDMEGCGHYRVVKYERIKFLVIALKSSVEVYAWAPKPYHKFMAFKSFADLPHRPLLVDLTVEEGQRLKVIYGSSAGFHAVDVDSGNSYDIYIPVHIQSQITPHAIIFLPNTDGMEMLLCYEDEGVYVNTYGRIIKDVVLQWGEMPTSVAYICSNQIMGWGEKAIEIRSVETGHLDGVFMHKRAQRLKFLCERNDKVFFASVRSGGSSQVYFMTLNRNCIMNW
UniProt Q8TDM6: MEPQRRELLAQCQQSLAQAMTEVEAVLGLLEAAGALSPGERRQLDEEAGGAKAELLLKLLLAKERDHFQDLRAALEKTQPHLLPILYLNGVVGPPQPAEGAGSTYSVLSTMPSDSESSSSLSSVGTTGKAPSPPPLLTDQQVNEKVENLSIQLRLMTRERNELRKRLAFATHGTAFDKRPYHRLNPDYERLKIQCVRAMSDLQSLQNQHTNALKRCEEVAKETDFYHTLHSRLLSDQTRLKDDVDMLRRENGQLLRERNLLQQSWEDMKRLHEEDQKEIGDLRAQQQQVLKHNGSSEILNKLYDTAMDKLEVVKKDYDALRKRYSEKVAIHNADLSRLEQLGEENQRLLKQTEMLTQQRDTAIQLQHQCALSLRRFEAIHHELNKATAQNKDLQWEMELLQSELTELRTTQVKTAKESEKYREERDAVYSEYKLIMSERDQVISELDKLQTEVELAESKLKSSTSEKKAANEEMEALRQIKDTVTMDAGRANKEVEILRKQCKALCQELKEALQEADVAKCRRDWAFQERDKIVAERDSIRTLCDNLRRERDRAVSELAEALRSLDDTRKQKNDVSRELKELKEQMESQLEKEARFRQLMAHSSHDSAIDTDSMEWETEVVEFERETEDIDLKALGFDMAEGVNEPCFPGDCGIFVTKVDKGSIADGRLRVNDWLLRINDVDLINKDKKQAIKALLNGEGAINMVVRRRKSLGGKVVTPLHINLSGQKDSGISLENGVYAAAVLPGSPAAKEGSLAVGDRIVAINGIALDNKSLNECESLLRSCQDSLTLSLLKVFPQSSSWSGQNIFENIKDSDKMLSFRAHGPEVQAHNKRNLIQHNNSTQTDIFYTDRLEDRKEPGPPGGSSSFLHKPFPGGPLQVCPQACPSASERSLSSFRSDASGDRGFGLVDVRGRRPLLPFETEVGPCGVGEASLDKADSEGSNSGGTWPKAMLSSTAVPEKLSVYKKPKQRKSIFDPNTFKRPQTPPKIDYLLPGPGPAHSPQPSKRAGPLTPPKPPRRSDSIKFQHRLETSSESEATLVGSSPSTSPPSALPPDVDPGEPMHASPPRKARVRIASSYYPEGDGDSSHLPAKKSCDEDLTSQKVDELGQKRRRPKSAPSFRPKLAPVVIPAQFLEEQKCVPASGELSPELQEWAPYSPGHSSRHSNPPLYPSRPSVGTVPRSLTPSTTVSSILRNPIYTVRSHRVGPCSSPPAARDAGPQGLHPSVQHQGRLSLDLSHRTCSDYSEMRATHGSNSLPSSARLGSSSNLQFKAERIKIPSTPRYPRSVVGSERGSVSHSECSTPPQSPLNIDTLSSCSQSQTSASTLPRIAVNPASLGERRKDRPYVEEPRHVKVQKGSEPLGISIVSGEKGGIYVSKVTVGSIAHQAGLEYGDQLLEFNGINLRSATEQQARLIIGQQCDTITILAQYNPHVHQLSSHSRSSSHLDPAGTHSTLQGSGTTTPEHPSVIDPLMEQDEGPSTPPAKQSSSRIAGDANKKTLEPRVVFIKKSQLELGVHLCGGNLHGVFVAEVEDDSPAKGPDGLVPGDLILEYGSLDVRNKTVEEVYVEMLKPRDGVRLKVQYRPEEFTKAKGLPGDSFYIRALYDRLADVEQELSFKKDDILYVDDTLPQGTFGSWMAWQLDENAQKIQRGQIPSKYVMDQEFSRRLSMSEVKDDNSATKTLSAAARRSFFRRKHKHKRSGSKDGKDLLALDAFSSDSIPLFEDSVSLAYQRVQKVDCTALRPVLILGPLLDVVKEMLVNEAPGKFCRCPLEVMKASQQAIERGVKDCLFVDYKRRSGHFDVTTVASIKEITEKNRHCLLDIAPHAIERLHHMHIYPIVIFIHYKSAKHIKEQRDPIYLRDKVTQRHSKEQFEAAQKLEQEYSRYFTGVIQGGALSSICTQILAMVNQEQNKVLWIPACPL
UniProt P35222: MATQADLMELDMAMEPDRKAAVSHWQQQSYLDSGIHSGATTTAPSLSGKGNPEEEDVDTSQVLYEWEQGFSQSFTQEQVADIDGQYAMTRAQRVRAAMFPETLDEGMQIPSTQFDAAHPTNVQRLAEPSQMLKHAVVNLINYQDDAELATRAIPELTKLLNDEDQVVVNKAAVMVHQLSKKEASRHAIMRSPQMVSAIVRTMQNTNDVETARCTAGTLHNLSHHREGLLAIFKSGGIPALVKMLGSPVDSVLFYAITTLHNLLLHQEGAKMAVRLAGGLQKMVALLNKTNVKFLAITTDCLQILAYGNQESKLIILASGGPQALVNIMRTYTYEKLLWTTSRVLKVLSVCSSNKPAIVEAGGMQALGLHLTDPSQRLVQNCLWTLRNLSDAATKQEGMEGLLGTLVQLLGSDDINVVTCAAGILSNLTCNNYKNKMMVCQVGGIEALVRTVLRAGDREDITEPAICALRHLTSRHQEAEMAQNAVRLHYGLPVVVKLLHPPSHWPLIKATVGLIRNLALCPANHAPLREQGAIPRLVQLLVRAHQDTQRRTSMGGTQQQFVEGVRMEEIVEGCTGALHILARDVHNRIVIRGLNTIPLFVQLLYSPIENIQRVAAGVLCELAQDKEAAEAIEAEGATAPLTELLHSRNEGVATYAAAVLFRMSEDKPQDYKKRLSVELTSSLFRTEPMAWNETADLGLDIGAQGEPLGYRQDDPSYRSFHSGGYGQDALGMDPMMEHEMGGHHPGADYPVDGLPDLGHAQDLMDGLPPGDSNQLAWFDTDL
UniProt P49023: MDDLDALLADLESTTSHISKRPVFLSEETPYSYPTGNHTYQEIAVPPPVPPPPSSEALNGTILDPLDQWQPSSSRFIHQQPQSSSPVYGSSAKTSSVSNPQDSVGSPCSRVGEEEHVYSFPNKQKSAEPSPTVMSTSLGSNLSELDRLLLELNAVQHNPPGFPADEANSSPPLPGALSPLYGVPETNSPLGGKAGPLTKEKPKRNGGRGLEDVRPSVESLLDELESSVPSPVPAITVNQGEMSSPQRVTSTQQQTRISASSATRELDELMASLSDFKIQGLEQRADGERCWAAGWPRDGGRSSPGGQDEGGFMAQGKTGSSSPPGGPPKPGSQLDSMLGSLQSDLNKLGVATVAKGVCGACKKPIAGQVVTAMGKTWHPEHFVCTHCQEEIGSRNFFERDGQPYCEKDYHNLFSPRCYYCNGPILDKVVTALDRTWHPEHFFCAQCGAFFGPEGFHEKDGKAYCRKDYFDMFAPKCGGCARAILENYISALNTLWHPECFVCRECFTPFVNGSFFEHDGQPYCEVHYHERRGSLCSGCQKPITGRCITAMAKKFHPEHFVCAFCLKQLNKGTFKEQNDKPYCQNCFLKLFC
UniProt Q9UDY2: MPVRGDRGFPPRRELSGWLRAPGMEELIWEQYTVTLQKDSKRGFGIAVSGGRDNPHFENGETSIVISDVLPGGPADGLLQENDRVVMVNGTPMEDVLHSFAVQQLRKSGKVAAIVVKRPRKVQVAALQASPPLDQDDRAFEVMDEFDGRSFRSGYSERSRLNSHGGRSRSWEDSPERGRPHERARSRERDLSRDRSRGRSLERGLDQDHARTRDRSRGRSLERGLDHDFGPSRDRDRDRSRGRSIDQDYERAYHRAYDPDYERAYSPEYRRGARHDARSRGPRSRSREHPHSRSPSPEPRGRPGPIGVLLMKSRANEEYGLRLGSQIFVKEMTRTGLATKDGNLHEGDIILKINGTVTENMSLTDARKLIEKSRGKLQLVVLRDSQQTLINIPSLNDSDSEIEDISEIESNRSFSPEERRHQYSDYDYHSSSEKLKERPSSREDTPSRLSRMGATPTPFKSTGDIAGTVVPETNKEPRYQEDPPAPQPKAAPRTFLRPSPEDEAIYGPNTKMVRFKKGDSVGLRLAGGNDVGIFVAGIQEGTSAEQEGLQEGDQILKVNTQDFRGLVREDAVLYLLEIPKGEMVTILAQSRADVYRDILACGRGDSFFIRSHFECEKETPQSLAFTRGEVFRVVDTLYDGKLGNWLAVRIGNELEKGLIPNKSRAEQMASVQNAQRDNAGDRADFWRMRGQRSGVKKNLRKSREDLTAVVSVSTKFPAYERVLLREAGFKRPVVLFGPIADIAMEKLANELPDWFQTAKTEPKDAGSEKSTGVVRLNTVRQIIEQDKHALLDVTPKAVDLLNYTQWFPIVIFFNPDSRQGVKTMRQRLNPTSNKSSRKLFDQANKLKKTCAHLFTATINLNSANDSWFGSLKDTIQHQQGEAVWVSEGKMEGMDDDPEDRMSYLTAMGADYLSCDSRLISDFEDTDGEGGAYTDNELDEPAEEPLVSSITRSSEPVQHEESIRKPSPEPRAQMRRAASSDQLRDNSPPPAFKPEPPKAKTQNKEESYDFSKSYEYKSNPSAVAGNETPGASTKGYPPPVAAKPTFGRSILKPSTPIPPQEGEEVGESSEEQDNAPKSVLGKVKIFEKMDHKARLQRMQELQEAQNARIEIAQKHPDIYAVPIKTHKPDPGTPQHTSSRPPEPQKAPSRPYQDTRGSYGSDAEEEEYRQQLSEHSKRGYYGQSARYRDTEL

biological target: T1, PTPRK-C1089S.BirA*-Flag (human) (UniProt Q15262); assay: proximity labelling; BioID in confluent MCF10A cells: doxycycline-induced PTPRK-C1089S.BirA*-Flag compared with PTPRK(1-785).BirA*-Flag and tGFP; 50 μM biotin for 24 hr; RIPA lysis, streptavidin agarose pull down, immunoblot
T1 sequence: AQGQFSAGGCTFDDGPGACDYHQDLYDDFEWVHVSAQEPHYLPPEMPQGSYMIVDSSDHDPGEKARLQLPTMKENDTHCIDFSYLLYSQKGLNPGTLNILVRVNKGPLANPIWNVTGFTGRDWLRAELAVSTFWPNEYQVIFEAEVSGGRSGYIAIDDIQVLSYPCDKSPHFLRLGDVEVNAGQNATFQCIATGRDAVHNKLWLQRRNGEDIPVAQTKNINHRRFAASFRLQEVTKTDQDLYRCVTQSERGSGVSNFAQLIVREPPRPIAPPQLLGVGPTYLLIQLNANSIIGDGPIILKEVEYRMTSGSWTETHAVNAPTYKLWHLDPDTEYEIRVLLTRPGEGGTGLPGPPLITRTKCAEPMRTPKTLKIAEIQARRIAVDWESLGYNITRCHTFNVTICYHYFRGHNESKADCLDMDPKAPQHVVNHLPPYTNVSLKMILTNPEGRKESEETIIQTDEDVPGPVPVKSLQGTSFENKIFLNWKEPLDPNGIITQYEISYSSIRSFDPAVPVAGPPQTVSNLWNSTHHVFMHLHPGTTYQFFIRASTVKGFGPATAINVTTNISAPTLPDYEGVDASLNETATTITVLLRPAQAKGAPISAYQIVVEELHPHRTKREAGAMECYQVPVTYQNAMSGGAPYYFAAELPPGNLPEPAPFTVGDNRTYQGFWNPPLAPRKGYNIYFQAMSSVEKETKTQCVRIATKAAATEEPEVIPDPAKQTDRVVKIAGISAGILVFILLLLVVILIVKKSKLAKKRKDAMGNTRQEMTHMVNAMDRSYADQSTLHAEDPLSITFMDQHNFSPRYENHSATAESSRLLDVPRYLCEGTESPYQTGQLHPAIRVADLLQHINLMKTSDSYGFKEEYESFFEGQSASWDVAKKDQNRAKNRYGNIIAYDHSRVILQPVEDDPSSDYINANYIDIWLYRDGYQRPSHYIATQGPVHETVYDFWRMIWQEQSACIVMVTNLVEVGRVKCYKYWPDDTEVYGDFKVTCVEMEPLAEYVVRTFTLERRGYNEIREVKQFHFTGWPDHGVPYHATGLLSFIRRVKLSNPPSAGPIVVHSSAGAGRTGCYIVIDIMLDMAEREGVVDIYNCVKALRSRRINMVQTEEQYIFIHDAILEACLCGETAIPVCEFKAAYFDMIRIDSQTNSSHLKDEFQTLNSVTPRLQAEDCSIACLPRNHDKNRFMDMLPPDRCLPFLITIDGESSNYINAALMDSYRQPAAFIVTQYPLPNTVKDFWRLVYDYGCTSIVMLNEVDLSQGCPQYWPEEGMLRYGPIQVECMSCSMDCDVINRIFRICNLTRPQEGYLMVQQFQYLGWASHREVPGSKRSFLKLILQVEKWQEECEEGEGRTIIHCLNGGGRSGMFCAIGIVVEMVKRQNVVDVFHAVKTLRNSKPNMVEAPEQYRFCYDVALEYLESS

| Molecule | binding |
| --- | --- |
| E-Cadherin (human (endogenous in MCF10A)) | no binding |
| MINK1 (from UniProt Q8N4C8 1-1332) | binds |
| DLG5 (from UniProt Q8TDM6 1-1919) | binds |
| Tubulin (human (endogenous in MCF10A)) | no binding |
| β-Catenin (from UniProt P35222 1-781) | no binding |
| Paxillin (from UniProt P49023 1-591) | no binding |
| ZO2 (from UniProt Q9UDY2 1-1190) | no binding |
| B1 | binds |
| B2 | binds |
| B3 | binds |
| B4 | binds |
